{"source": "patent US12484608B2", "about": "“Nutritional composition and infant formula for promoting de novo myelination” (SOCIETE DES PRODUITS NESTLE S.A., priority 2015, dated 2025)", "tested_on": "brain myelination", "test": "Cross-sectional correlation of infant formula nutrient content with brain myelin content (mcDESPOT MRI, myelin water fraction)", "assay_type": "in vivo, human", "conditions": "formula-fed children up to 5 years", "from_the_text": "MRI (Magnetic Resonance Imaging): MRI brain scans of infants and children between 0 and 5 years were acquired using a white matter imaging technique. This technique provides a quantitative measure, the Myelin Water Fraction (MWF), which is a surrogate marker of myelin content in the brain. When mapped as a function of time across early childhood, myelination trajectories can be generated.\nEach infant was scanned using the mcDESPOT (multicomponent Driven Equilibrium Single Pulse Observation of T1 and T2) white matter imaging technique Deoni et al. (Magn. Reson. Med. 2008, 60:1372-1387), which provides a quantitative measure of the myelin water fraction (MWF)—a measure of myelin content—at each point throughout the brain. […]\nEach child's map was then non-linearly aligned to a study specific template. […] Mean values for each region were then determined for each child and used for subsequent developmental analysis and trajectory modeling.\nFrom the cohort described above, children up to 5 years of age that were fed different infant formulas during infancy were included in a large correlation analysis to examine the relationship between formula nutrient composition and brain myelination. The 5 most frequently used formulas in that cohort were analyzed for their nutritional composition. A single general linear model (GLM) was constructed that modeled all quantified nutrients and child age. […]", "note": "At least one compound was matched to its structure with a doubt left."}
{"smiles": "CC/C=C\\C/C=C\\C/C=C\\C/C=C\\C/C=C\\C/C=C\\CCC(=O)O", "note": "[DHA, docosahexaenoic acid]", "values": [{"measurement": "association with myelination (myelin water fraction) over time in the brain", "result": "an association with myelination (myelin water fraction) was observed over time in the brain"}]}
